Experimental data: PubChem BioAssay AID1259308 (NCATS, 2017)
Screen: 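Candidate targets for better recombinant protein yield in mammalian cells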 (primary screen). Cells: human HEK293 embryonic kidney cells stably expressing firefly luciferase (HEK-CMV-Luc2-Hygro). Reagents: single siRNA against human genes, 0.8 pmol siRNA per well. Time to read-out: 72 h. Read-out: 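Reporter luminescence and viable-cell signal on separate replicate plates, given as percent of non-targeting control and median/MAD z-scores, plus per-cell luciferase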. Reading the numbers: total luciferase, z-score: higher = more reporter protein produced. Call rule: 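Active when the median/MAD z-score for overall luciferase is greater than 3; a gene was taken forward for validation with new siRNAs if at least two of its three siRNAs passed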. Meaning of the calls: active = raised luciferase; inactive = no rise.
This is one part, drawn at random, of about 59,000 deposited reagents. About 1,510 of all reagents (2.6%) were called active. 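Calls use total luciferase alone and ignore viability, so some active siRNAs may act by altering cell number.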 Entries without a mark were called inactive. The numbers tell different reagents against one gene apart. Not all columns of the deposit are shown.

total luciferase, z-score, by target and reagent
SFXN5 (GeneID 94097): #1 1.12; #2 -0.783; #3 -0.422
ARFGEF3 (GeneID 57221): #1 0.338; #2 1.31; #3 -0.643
TRMT11 (GeneID 60487): #1 0.761; #2 -1.35; #3 -0.752
ZKSCAN7 (GeneID 55888): #1 0.17; #2 -0.572; #3 -2.05

A few values from above:
Result for ZKSCAN7 (GeneID 55888) #3 in “total luciferase, z-score”: -2.05
SFXN5 (GeneID 94097) #1, total luciferase, z-score: 1.12
For “total luciferase, z-score”, ZKSCAN7 (GeneID 55888) #1 shows 0.17

Further results:
total luciferase, z-score, by target and reagent
PPP3R1 (GeneID 5534): #1 -0.702; #2 -0.822; #3 -0.769
GRPEL2 (GeneID 134266): #1 -0.237; #2 0.853; #3 -1.45
OSR2 (GeneID 116039): #1 -0.4; #2 0.223; #3 -0.469
NKD1 (GeneID 85407): #1 -0.653; #2 0.2; #3 -0.951
